The values below come from the supplement of paper PMC10849652.

Protein sequences, listed by entry. Tags and fused reporters are not part of them. Lines headed by an entry give the natural chain unless they say otherwise; changes in a name come on top.
UniProt Q9BW60: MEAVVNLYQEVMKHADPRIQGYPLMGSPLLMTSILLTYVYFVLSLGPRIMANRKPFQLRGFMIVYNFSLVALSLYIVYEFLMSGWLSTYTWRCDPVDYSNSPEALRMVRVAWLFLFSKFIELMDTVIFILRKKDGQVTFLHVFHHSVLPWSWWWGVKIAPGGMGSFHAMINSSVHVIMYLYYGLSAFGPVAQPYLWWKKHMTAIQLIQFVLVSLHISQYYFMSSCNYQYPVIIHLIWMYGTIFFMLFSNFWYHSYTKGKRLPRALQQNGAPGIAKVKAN
UniProt P55010, whole entry, looked up: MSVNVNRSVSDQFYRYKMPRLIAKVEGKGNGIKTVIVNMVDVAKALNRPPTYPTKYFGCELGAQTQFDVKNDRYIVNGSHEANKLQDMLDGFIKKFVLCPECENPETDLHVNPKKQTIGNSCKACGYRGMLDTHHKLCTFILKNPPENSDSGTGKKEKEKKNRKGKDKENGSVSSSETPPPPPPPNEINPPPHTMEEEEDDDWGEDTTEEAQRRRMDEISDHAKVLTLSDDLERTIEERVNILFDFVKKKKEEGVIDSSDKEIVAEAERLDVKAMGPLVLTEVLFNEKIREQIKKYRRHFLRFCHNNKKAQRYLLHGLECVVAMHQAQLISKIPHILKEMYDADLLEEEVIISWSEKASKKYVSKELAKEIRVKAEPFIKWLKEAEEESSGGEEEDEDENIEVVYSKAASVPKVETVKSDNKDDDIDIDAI
UniProt Q5NDL2: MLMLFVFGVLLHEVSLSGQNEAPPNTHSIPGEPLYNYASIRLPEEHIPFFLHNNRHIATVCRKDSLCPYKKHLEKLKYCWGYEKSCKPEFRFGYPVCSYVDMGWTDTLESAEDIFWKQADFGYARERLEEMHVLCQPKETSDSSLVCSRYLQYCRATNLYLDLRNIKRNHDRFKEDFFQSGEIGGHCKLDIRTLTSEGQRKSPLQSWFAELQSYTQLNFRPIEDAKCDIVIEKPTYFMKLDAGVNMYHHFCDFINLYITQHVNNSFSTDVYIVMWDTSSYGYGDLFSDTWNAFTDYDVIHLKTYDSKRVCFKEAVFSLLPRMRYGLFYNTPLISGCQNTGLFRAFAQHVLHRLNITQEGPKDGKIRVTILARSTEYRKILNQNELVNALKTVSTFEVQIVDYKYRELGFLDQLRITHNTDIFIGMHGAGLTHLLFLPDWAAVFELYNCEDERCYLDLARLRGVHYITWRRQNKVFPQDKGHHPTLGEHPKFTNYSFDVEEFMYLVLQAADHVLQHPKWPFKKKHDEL
UniProt O43402: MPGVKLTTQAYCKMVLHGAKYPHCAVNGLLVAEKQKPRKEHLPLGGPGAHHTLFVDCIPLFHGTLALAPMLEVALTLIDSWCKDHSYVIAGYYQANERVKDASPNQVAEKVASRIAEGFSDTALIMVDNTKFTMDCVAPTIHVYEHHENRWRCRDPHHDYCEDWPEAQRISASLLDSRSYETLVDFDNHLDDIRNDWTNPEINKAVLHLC
UniProt O60841: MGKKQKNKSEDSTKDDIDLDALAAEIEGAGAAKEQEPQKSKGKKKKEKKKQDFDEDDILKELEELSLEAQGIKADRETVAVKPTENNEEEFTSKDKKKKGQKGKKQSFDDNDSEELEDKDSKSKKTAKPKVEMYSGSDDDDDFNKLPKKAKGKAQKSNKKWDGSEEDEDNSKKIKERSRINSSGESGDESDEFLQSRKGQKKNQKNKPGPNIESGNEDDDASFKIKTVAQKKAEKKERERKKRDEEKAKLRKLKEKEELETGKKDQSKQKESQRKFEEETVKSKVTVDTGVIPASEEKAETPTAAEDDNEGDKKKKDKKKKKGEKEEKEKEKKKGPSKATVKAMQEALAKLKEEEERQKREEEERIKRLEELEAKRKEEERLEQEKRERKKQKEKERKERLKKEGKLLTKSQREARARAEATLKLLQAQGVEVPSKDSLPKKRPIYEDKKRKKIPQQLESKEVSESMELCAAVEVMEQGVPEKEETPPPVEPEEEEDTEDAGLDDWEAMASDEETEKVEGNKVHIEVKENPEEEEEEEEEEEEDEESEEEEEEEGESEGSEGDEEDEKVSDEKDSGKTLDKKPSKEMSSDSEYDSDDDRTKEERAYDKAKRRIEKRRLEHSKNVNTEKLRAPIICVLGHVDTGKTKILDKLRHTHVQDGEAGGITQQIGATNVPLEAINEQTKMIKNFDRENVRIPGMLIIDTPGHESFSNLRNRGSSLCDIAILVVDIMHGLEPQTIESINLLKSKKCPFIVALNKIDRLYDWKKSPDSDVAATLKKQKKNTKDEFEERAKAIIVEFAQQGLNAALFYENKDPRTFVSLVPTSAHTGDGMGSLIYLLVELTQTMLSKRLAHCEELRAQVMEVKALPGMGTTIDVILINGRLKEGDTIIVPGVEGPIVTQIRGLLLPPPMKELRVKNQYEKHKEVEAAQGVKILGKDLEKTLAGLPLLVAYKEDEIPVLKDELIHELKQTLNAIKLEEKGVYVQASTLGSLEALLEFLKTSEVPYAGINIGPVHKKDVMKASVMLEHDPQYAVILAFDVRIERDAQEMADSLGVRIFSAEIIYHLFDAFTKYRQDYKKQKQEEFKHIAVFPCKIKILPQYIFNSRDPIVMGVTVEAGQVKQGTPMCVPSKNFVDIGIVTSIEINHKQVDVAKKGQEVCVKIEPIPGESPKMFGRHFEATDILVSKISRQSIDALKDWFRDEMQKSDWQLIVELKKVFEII
UniProt Q7Z2Z2: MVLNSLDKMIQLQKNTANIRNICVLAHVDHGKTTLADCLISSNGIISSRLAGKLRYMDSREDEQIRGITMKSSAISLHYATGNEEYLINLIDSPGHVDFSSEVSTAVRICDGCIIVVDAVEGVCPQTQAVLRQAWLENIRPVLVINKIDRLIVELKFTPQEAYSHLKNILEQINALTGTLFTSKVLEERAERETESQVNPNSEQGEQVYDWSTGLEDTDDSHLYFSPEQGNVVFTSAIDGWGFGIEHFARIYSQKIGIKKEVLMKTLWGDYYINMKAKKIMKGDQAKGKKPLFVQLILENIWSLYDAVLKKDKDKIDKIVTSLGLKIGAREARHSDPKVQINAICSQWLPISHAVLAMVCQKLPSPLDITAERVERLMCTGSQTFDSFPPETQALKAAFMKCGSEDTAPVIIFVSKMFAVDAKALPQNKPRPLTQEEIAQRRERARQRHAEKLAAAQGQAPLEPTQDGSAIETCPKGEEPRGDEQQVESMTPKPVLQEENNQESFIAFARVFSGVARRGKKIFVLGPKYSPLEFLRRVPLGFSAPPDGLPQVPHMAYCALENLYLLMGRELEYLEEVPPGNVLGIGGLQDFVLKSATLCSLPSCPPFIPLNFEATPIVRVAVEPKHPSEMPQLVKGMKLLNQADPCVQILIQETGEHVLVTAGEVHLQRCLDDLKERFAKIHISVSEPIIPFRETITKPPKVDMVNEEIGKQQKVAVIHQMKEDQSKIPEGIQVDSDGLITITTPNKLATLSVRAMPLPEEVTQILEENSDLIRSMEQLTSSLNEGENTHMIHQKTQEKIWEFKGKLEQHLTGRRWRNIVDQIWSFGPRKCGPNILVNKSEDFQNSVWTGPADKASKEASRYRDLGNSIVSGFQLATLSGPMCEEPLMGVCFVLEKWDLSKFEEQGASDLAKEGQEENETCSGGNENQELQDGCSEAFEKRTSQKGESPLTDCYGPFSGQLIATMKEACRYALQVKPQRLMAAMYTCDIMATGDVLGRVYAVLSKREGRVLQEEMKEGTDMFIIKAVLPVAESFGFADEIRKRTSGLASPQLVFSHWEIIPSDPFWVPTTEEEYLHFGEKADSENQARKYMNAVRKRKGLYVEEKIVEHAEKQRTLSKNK
UniProt O95163: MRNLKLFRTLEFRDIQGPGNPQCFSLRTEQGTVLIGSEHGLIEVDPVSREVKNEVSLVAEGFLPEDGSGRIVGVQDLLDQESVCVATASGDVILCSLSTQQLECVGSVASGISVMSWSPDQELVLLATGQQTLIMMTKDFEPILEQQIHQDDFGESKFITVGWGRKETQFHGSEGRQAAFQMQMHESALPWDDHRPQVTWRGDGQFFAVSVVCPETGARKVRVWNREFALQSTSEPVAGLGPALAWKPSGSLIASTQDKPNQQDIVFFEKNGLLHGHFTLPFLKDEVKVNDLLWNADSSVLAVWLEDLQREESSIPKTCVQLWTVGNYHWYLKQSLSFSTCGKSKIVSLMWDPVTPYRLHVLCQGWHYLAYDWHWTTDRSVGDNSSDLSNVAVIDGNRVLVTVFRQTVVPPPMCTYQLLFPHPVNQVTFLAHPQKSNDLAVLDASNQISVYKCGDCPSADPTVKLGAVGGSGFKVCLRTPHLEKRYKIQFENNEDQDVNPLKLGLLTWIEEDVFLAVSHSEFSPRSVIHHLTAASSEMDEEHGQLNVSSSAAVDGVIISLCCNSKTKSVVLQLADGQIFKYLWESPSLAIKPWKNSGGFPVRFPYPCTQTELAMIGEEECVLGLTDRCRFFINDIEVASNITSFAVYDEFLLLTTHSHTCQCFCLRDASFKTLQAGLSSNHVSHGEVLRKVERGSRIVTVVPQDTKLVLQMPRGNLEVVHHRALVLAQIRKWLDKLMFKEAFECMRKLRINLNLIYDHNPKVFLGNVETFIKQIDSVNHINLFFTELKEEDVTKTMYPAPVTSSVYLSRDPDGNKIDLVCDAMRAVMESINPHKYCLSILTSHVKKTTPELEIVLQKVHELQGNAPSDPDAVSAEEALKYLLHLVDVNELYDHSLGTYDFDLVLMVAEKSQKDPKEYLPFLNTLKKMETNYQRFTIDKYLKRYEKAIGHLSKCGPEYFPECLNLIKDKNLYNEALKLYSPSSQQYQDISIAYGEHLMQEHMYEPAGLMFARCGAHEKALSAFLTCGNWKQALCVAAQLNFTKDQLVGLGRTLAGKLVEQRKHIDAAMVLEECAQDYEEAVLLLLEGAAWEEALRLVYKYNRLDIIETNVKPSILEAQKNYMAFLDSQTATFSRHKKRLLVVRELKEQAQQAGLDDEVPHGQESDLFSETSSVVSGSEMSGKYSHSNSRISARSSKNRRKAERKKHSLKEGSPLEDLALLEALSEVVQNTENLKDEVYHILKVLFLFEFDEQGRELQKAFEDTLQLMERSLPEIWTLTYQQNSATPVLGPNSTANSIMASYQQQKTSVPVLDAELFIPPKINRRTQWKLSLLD
UniProt Q8N6R0: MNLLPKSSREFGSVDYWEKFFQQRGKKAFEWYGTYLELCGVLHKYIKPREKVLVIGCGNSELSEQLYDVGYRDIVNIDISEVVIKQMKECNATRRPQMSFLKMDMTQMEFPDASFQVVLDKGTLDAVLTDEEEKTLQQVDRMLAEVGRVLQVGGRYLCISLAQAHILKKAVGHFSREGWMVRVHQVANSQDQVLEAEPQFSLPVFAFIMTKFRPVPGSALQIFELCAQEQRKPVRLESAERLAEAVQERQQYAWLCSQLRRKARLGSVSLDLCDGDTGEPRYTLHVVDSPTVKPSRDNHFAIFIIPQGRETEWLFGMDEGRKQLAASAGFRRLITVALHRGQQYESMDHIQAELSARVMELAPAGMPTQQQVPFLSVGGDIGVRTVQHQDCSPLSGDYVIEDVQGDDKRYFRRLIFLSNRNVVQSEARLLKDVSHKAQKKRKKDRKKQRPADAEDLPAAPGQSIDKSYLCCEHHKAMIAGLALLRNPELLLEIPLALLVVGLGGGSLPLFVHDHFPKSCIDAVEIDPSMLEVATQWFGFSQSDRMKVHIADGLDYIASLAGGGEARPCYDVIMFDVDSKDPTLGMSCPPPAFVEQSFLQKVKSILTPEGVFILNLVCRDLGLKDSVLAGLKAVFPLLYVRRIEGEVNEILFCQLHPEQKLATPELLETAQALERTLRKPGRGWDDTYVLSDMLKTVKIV
UniProt P29692: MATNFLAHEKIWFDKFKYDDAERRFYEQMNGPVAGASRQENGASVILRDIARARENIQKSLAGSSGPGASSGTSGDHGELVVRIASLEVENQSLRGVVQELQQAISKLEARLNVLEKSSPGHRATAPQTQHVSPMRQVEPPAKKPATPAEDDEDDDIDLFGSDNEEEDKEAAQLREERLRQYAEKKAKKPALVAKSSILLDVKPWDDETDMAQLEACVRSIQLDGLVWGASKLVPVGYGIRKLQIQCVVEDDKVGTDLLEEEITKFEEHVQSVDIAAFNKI
UniProt P26641, whole entry, looked up: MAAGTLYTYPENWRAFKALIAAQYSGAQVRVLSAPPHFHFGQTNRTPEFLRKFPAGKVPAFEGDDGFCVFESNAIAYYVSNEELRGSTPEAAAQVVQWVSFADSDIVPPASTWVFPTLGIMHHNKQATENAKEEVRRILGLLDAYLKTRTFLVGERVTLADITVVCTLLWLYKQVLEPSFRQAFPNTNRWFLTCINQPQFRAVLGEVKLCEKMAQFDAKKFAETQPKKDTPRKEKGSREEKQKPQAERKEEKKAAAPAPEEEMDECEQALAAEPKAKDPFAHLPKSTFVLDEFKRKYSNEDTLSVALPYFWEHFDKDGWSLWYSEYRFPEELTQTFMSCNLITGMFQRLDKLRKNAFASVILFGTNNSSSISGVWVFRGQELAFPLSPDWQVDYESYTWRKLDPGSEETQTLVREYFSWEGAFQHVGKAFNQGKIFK

Some of the results follow.

Compound in this experiment: Nc1ccccc1NC(=O)c1ccc(CNC(=O)OCc2cccnc2)cc1 [entinostat]
In words: log2 fold change, soluble protein after heating vs DMSO (PISA); higher = thermal stabilisation; K562 cells, 10 uM, 30 min; active = over 0.2 and 3.5 SD of the protein, either way, in both replicates (recomputed). The gist of the method:
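Soluble protein was defined as the supernatant after 21,000xg for 90 min. It came from K562 cells at 2×10^6 cells/mL given 10 μM compound for 30 min, heated in aliquots for 3 min across 48°C-58°C, pooled, and extracted in PBS with 0.5% NP-40 at 4°C, and was quantified by TMTpro 16plex LC-MS/MS with equalised channel sums. Thermal stability against control samples, from duplicates, is reported as log2 fold change.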
Take ELOVL1 (UniProt Q9BW60): the log2 fold change is inactive: 0.05.
In the case of EGLN1 (UniProt Q9GZT9), the log2 fold change is inactive: -0.009.
The same measure for EIF5 (UniProt P55010): inactive: 0.027.
In the case of EIF2B1 (UniProt Q14232), the log2 fold change is inactive: -0.005.
The same measure for EHBP1L1 (UniProt Q8N3D4): inactive: 0.
In the case of EOGT (UniProt Q5NDL2), the log2 fold change is inactive: 0.031.
The same measure for EHD2 (UniProt Q9NZN4): inactive: 0.033.
With EMC8 (UniProt O43402), the log2 fold change is inactive: 0.002.
The same measure for EIF4H (UniProt Q15056): inactive: 0.013; for EIF2S3 (UniProt P41091): inactive: -0.001.
The same measure for EIF5B (UniProt O60841): inactive: 0.028; for ELOC (UniProt Q15369): inactive: 0.024; for EFHD2 (UniProt Q96C19): inactive: 0.033.
On to EFCAB14 (UniProt O75071), for which the log2 fold change is inactive: 0.007.
The same measure for EEF1B2 (UniProt P24534): inactive: 0.04; for EFL1 (UniProt Q7Z2Z2): inactive: 0.025; for EIF1AD (UniProt Q8N9N8): inactive: -0.007.
Consider EMD (UniProt P50402), for which the log2 fold change is inactive: -0.031.
Turning to ELP1 (UniProt O95163), the log2 fold change was inactive: -0.019.
ELOVL5 isoform 2 (UniProt Q9NYP7): the log2 fold change is inactive: 0.056.
Consider EEF1AKNMT (UniProt Q8N6R0), for which the log2 fold change was inactive: 0.038.
As to EEF1D isoform 2 (UniProt P29692), the log2 fold change is inactive: 0.018.
Consider EEF1G isoform 2 (UniProt P26641), for which the log2 fold change was inactive: 0.036.
